Some of the results follow.
Key:
Experiment in all cases: log2 fold change, soluble protein after heating vs DMSO (PISA); higher = thermal stabilisation; K562 cells, 10 uM, 30 min; active = over 0.2 and 3.5 SD of the protein, either way, in both replicates (recomputed)
bafetinib = compound: Cc1ccc(NC(=O)c2ccc(CN3CC[C@H](N(C)C)C3)c(C(F)(F)F)c2)cc1Nc1nccc(-c2cncnc2)n1 [bafetinib]
Procedure, shortened: (§1)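 K562 cells at 2×10^6 cells/mL were exposed to 10 μM compound for 30 min, then aliquots were heated for 3 min across 48°C-58°C, pooled, and extracted in PBS containing 0.5% NP-40 at 4°C. The supernatant after 21,000xg for 90 min was taken as soluble protein and measured by TMTpro 16plex LC-MS/MS with channel sums equalised. Thermal stability is reported relative to control samples, with values from duplicates. Fold changes are given on a log2 scale.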

The chains behind the UniProt entries cited, without tags or fusion partners. Where a name states a change or a piece, a line headed by the entry shows the natural chain unless it says otherwise.
UniProt Q9H5X1: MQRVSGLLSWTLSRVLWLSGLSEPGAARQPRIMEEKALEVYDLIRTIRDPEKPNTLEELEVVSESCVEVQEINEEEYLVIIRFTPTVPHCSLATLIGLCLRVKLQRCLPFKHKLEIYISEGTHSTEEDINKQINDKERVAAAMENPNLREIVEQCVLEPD
UniProt Q9ULV3: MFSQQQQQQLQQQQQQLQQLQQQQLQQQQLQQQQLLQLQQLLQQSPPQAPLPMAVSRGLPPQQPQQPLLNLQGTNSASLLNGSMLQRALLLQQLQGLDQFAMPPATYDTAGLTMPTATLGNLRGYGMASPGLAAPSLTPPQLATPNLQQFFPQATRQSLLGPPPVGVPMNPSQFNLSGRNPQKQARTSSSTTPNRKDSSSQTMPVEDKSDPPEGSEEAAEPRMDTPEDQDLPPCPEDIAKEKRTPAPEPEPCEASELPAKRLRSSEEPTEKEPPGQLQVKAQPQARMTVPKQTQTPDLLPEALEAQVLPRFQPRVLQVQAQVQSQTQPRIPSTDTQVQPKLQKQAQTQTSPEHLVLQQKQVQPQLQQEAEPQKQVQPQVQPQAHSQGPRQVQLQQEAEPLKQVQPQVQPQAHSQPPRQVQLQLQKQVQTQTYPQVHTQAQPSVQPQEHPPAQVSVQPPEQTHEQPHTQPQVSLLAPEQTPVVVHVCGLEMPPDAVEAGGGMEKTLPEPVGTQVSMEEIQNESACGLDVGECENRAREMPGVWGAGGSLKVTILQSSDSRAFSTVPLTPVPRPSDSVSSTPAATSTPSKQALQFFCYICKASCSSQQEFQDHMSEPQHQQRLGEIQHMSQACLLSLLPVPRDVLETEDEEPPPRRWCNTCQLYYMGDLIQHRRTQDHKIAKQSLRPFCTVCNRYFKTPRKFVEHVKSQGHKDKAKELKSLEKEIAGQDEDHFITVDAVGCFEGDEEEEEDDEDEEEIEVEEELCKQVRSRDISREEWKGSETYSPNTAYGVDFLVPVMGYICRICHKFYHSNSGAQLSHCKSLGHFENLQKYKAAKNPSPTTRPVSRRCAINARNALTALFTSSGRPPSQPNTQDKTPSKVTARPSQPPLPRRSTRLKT
UniProt P30085: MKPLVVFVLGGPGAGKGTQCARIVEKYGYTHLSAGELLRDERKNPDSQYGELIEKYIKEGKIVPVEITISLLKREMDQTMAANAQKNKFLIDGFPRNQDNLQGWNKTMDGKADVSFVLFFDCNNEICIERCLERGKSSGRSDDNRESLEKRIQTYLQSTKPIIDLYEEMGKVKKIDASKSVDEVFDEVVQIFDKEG
UniProt Q9GZY4: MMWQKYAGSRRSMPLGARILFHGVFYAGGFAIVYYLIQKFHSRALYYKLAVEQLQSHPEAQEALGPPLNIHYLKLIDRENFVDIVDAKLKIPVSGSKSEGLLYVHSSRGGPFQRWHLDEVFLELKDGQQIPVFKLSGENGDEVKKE
UniProt Q7Z460: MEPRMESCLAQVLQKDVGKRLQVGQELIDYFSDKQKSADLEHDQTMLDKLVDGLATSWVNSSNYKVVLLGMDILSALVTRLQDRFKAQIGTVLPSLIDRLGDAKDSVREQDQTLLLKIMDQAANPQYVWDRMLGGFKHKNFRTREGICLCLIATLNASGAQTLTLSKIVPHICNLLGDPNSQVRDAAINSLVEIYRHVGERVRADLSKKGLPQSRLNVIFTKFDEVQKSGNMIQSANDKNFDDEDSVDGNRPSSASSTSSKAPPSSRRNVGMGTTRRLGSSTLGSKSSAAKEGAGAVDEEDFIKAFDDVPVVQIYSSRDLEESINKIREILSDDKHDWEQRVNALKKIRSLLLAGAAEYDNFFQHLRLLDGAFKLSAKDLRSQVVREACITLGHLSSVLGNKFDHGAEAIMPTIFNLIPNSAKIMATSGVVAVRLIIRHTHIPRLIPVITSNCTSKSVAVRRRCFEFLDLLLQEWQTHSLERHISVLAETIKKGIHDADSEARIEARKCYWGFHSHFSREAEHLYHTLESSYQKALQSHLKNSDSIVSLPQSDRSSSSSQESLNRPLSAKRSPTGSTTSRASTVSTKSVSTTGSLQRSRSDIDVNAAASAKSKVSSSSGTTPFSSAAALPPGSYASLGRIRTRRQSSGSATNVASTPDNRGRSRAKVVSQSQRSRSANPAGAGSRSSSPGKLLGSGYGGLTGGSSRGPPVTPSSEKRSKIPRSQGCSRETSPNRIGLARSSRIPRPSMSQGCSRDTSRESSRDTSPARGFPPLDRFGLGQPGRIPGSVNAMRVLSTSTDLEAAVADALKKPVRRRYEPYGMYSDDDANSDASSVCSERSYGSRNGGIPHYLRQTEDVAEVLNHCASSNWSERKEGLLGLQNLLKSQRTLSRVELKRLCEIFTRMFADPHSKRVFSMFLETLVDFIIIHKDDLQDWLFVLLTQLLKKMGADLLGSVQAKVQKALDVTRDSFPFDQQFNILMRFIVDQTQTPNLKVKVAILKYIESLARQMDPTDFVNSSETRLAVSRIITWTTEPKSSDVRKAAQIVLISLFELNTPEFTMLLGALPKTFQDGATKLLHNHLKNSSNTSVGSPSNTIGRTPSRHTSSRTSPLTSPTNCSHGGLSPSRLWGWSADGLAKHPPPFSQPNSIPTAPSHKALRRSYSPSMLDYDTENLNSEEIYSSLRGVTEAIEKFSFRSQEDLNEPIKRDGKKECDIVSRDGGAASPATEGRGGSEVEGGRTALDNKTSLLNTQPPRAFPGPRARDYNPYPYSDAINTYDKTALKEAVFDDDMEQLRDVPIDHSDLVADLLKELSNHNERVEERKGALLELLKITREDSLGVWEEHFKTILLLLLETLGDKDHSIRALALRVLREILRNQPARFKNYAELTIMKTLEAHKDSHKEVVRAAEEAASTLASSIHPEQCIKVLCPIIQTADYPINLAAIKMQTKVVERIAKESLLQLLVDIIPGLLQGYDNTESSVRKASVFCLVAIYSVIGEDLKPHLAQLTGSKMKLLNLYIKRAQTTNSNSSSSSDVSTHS
UniProt Q14011: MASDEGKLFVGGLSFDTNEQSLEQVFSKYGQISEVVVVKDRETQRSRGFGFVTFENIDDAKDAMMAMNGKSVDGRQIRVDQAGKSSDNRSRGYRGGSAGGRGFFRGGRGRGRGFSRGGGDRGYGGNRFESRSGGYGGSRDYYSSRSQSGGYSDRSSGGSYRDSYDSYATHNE
UniProt Q9NZN8, whole entry, looked up: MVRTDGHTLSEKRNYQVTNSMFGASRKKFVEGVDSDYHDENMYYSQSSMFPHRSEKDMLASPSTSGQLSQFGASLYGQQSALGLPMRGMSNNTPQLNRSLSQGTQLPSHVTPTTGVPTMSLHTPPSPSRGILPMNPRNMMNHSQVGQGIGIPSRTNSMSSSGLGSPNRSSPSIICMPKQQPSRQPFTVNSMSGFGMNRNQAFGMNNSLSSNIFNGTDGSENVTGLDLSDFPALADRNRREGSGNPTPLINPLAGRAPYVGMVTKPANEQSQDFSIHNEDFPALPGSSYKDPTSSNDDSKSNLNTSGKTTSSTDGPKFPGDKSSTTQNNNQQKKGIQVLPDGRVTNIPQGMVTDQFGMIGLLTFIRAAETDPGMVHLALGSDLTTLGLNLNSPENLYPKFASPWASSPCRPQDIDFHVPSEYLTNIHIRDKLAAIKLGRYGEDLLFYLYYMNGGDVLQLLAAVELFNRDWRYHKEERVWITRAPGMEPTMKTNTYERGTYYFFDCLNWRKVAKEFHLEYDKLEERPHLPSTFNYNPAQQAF
UniProt Q96KP4: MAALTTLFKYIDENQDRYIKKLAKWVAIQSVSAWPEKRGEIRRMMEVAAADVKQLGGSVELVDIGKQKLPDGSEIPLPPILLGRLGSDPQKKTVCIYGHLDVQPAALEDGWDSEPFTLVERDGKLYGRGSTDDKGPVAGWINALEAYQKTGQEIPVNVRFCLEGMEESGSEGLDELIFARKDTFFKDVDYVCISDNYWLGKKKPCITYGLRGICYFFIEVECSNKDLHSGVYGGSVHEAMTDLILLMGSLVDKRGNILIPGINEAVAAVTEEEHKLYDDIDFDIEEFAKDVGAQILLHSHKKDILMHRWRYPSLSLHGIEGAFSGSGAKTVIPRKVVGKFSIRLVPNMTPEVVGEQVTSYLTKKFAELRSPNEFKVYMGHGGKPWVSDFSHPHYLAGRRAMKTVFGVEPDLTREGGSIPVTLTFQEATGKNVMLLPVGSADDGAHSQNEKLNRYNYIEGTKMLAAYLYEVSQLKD
UniProt P39060, whole entry, looked up: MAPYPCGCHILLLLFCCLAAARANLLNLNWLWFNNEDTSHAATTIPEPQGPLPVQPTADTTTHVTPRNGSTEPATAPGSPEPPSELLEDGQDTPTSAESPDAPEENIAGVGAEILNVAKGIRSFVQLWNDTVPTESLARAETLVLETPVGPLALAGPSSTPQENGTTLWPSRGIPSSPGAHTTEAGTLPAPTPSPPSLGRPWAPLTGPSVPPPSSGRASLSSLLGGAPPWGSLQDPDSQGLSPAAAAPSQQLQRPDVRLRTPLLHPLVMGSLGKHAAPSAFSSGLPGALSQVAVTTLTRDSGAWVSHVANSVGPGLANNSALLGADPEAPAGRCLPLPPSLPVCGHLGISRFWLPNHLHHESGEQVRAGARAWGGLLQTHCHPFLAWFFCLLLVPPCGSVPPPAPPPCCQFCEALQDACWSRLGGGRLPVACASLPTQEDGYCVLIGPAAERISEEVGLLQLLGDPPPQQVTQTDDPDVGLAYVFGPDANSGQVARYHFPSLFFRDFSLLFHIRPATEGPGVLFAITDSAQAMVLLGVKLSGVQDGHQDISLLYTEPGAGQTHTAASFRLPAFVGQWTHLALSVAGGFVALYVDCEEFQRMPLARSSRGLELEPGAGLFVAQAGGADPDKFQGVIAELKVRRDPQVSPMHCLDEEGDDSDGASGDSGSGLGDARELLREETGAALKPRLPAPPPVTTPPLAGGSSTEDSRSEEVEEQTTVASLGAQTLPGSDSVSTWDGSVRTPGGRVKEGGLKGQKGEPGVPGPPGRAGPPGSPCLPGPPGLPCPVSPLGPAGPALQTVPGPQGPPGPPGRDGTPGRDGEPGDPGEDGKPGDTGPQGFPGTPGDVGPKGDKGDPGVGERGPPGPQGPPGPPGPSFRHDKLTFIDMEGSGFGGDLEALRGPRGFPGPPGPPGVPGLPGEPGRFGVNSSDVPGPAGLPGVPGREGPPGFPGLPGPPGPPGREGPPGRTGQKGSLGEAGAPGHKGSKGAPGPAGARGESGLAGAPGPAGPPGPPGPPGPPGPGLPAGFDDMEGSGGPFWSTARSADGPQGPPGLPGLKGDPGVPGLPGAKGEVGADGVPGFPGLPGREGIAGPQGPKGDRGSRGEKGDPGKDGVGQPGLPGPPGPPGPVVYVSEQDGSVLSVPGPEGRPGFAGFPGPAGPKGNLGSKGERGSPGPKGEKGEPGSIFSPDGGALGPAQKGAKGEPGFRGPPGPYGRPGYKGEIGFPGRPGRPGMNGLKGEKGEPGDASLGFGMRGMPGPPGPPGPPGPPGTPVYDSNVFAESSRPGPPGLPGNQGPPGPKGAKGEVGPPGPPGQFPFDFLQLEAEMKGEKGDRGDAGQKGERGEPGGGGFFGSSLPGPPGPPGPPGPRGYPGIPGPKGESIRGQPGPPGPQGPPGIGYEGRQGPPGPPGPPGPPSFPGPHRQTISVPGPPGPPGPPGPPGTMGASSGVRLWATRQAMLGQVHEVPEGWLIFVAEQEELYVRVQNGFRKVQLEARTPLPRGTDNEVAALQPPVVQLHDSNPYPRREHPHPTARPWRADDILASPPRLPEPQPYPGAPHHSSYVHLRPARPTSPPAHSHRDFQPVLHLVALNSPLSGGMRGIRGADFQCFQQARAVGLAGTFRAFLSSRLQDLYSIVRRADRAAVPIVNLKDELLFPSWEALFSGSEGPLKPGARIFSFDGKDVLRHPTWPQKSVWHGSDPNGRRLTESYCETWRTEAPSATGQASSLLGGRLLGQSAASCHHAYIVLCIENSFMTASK
UniProt Q96KA5: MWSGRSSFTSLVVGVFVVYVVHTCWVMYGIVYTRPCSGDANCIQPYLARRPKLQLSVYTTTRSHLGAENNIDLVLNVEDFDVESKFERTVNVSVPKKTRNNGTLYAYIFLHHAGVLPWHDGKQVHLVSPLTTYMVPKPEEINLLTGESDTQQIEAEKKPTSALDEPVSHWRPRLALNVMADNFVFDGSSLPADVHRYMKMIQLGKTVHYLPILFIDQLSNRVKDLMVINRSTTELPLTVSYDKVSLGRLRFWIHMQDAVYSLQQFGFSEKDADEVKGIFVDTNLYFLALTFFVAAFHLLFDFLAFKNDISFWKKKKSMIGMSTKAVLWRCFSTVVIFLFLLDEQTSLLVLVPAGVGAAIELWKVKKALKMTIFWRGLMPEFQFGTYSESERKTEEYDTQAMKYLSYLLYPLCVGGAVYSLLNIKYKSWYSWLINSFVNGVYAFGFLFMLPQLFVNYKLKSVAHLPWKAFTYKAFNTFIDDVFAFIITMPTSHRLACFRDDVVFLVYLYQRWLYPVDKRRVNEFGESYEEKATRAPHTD

[1] = compound: Cc1cccc(CC(=O)N2CCc3c2ccc(-c2cn(C)c4ncnc(N)c24)c3F)n1
Procedure, shortened: as §1

nilotinib = compound: Cc1cn(-c2cc(NC(=O)c3ccc(C)c(Nc4nccc(-c5cccnc5)n4)c3)cc(C(F)(F)F)c2)cn1 [nilotinib]
Procedure, shortened: as §1

[2] = compound: Cc1nc(Nc2n[nH]c3c2CN(C(=O)N[C@H](CN(C)C)c2ccccc2)C3(C)C)c2sccc2n1
Procedure, shortened: as §1

dasatinib = compound: Cc1nc(Nc2ncc(C(=O)Nc3c(C)cccc3Cl)s2)cc(N2CCN(CCO)CC2)n1 [dasatinib]
Procedure, shortened: as §1

[3] = compound: Cc1ncc(-c2ccnc(Nc3ccc(S(C)(=O)=O)cc3)n2)n1C(C)C
Procedure, shortened: as §1

[4] = compound: Cn1cc(-c2ccc3c(c2)CCN3C(=O)Cc2cccc(C(F)(F)F)c2)c2c(N)ncnc21
Procedure, shortened: as §1

[5] = compound: Cn1cc(-c2ccc3nnc(C(F)(F)c4ccc5ncccc5c4)n3n2)cn1
Procedure, shortened: as §1

tipifarnib = compound: Cn1cncc1[C@@](N)(c1ccc(Cl)cc1)c1ccc2c(c1)c(-c1cccc(Cl)c1)cc(=O)n2C [tipifarnib]
Procedure, shortened: as §1

mubritinib = compound: FC(F)(F)c1ccc(/C=C/c2nc(COc3ccc(CCCCn4ccnn4)cc3)co2)cc1 [mubritinib]
Procedure, shortened: as §1

[6] = compound: NC(=O)Nc1cc(-c2cccc(F)c2)sc1C(=O)N[C@H]1CCCNC1
Procedure, shortened: as §1

[7] = compound: NC(=O)c1cnc(N[C@@H]2CCCC[C@@H]2N)nc1Nc1cccc(-n2nccn2)c1
Procedure, shortened: as §1

[8] = compound: NC1(c2ccc(-c3nc4ccn5c(=O)[nH]nc5c4cc3-c3ccccc3)cc2)CCC1
Procedure, shortened: as §1

[9] = compound: NCC(=O)Nc1ccc(-n2nc(C(F)(F)F)cc2-c2ccc3c(ccc4ccccc43)c2)cc1
Procedure, shortened: as §1

entinostat = compound: Nc1ccccc1NC(=O)c1ccc(CNC(=O)OCc2cccnc2)cc1 [entinostat]
Procedure, shortened: as §1

vorinostat = compound: O=C(CCCCCCC(=O)Nc1ccccc1)NO [vorinostat]
Procedure, shortened: as §1

citarinostat = compound: O=C(CCCCCCNC(=O)c1cnc(N(c2ccccc2)c2ccccc2Cl)nc1)NO [citarinostat]
Procedure, shortened: as §1

silmitasertib = compound: O=C(O)c1ccc2c(c1)nc(Nc1cccc(Cl)c1)c1ccncc12 [silmitasertib]
Procedure, shortened: as §1

[10] = compound: O=C1NC(=O)C(c2cnc3ccccn23)=C1c1cn2c3c(cc(F)cc13)CN(C(=O)N1CCCCC1)CC2
Procedure, shortened: as §1

[11] = compound: c1cc(OCCN2CCCCC2)cc(-c2n[nH]c3ccc(-c4nnc[nH]4)cc23)c1
Procedure, shortened: as §1

Target | log2 fold change (bafetinib) | log2 fold change [1] | log2 fold change (nilotinib) | log2 fold change [2] | log2 fold change (dasatinib) | log2 fold change [3] | log2 fold change [4] | log2 fold change [5] | log2 fold change (tipifarnib) | log2 fold change (mubritinib) | log2 fold change [6] | log2 fold change [7] | log2 fold change [8] | log2 fold change [9] | log2 fold change (entinostat) | log2 fold change (vorinostat) | log2 fold change (citarinostat) | log2 fold change (silmitasertib) | log2 fold change [10] | log2 fold change [11]
COCH (UniProt O43405) | inactive: 0.076 | inactive: -0.17 | inactive: 0.2 | inactive: -0.288 | inactive: 0.179 | inactive: -0.262 | inactive: -0.069 | inactive: -0.005 | inactive: 0.07 | inactive: -0.062 | inactive: 0.024 | inactive: -0.014 | inactive: 0.035 | inactive: 0.13 | inactive: 0.123 | inactive: -0.122 | inactive: -0.084 | inactive: 0.072 | inactive: 0.055 | inactive: -0.149
CIAO2A (UniProt Q9H5X1) | inactive: -0.002 | inactive: -0.023 | inactive: -0.055 | inactive: 0.051 | inactive: -0.061 | inactive: -0.02 | inactive: 0.033 | inactive: 0.006 | inactive: 0.026 | inactive: 0.062 | inactive: -0.034 | inactive: -0.073 | inactive: -0.03 | inactive: 0.004 | inactive: -0.008 | inactive: -0.006 | inactive: -0.04 | inactive: -0.041 | inactive: -0.018 | inactive: 0.009
CIZ1 (UniProt Q9ULV3) | inactive: -0.063 | inactive: 0.013 | inactive: 0.016 | inactive: -0.181 | inactive: -0.016 | inactive: -0.063 | inactive: 0.021 | inactive: -0.066 | inactive: 0.008 | inactive: 0.019 | inactive: -0.031 | inactive: -0.087 | inactive: -0.053 | inactive: -0.022 | inactive: -0.032 | inactive: 0.036 | inactive: 0.023 | inactive: 0.026 | inactive: 0.074 | inactive: -0.045
CMPK1 (UniProt P30085) | inactive: -0.031 | inactive: 0.013 | inactive: 0.05 | inactive: 0.027 | inactive: -0.039 | inactive: 0.014 | inactive: 0.029 | inactive: -0.036 | inactive: -0.032 | inactive: 0.048 | inactive: -0.034 | inactive: -0.056 | inactive: -0.102 | inactive: 0.018 | inactive: -0.02 | inactive: 0.022 | inactive: 0.013 | inactive: 0.019 | inactive: -0.029 | inactive: -0.01
COA1 (UniProt Q9GZY4) | inactive: -0.136 | inactive: -0.036 | inactive: -0.015 | inactive: 0.033 | inactive: -0.018 | inactive: -0.01 | inactive: 0.013 | inactive: -0.004 | inactive: 0.024 | inactive: 0.009 | inactive: -0.031 | inactive: -0.041 | inactive: -0.063 | inactive: -0.086 | inactive: -0.021 | inactive: 0.022 | inactive: 0.016 | inactive: -0.016 | inactive: -0.047 | inactive: 0.004
CMAS (UniProt Q8NFW8) | inactive: 0.072 | inactive: -0.024 | inactive: -0.028 | inactive: 0.041 | inactive: 0.026 | inactive: -0.005 | inactive: -0.074 | inactive: -0.134 | inactive: 0.041 | inactive: -0.084 | inactive: 0.002 | inactive: 0.042 | inactive: 0.171 | inactive: 0.019 | inactive: -0.016 | inactive: 0.029 | inactive: -0.055 | inactive: 0.174 | inactive: 0.137 | inactive: -0.093
CLIP4 (UniProt Q8N3C7) | inactive: -0.04 | inactive: -0.014 | inactive: -0.025 | inactive: 0.072 | inactive: 0.101 | inactive: 0.071 | inactive: 0.078 | inactive: 0.255 | inactive: 0.104 | inactive: -0.25 | inactive: -0.005 | inactive: -0.014 | inactive: 0.232 | inactive: -0.008 | inactive: -0.133 | inactive: -0.048 | inactive: 0.023 | inactive: 0.114 | inactive: -0.14 | inactive: -0.099
CLUH, A0A494C0R8 | inactive: 0.016 | inactive: -0.445 | inactive: 0.264 | inactive: 0.015 | inactive: -0.051 | inactive: 0 | inactive: -0.018 | active: 0.532 | inactive: 0.145 | inactive: 0.072 | inactive: 0.031 | inactive: 0.031 | inactive: -0.003 | inactive: -0.062 | inactive: 0.09 | inactive: 0.195 | inactive: -0.026 | inactive: 0.046 | inactive: 0.118 | inactive: -0.08
CLASP1 (UniProt Q7Z460) | inactive: 0.028 | inactive: 0.083 | inactive: -0.084 | inactive: -0.122 | inactive: -0.244 | inactive: -0.054 | inactive: 0.02 | inactive: -0.01 | inactive: -0.078 | inactive: 0 | inactive: -0.035 | inactive: -0.043 | inactive: -0.113 | inactive: -0.106 | inactive: 0.032 | inactive: 0.133 | inactive: 0.07 | inactive: 0.014 | inactive: -0.078 | inactive: -0.118
CKMT2 (UniProt P17540) | inactive: -0.288 | inactive: -0.1 | inactive: -0.026 | inactive: 0.046 | inactive: 0.014 | inactive: -0.058 | inactive: -0.013 | inactive: -0.049 | inactive: -0.148 | inactive: 0.047 | inactive: -0.167 | inactive: 0.02 | inactive: -0.104 | inactive: -0.093 | inactive: -0.064 | inactive: 0.312 | inactive: -0.025 | inactive: 0.013 | inactive: -0.083 | inactive: 0.051
CIRBP isoform 2 (UniProt Q14011) | inactive: 0.098 | inactive: -0.076 | inactive: -0.036 | inactive: 0.136 | inactive: 0.088 | inactive: 0.06 | inactive: -0.263 | inactive: -0.142 | inactive: 0.068 | inactive: -0.148 | inactive: 0.019 | inactive: 0.006 | inactive: 0.219 | inactive: 0.022 | inactive: -0.019 | inactive: -0.053 | inactive: -0.089 | inactive: 0.087 | inactive: 0.14 | inactive: -0.12
CNOT2 (UniProt Q9NZN8) | inactive: -0.002 | inactive: 0 | inactive: 0.048 | inactive: -0.063 | inactive: -0.035 | inactive: 0.01 | inactive: -0.055 | inactive: 0.022 | inactive: -0.063 | inactive: 0.054 | inactive: -0.012 | inactive: -0.014 | inactive: -0.058 | inactive: -0.087 | inactive: -0.023 | inactive: 0.018 | inactive: 0.026 | inactive: 0.046 | inactive: 0.007 | inactive: -0.058
CNDP2 (UniProt Q96KP4) | inactive: -0.03 | inactive: 0.006 | inactive: 0.045 | inactive: -0.015 | inactive: -0.031 | inactive: -0.041 | inactive: 0.066 | inactive: 0.032 | inactive: -0.067 | inactive: 0.101 | inactive: -0.013 | inactive: -0.035 | inactive: -0.052 | inactive: 0.01 | inactive: -0.015 | inactive: -0.015 | inactive: 0.023 | inactive: -0.065 | inactive: -0.005 | inactive: 0.001
CNOT1 (UniProt A5YKK6) | inactive: 0.009 | inactive: 0.033 | inactive: -0.066 | inactive: -0.058 | inactive: -0.106 | inactive: -0.014 | inactive: 0.023 | inactive: -0.035 | inactive: -0.061 | inactive: 0.052 | inactive: 0 | inactive: 0.01 | inactive: -0.075 | inactive: -0.026 | inactive: 0.024 | inactive: 0.035 | inactive: 0.05 | inactive: 0.055 | inactive: 0.004 | inactive: -0.032
COL18A1 (UniProt P39060) | inactive: 0.002 | inactive: -0.017 | inactive: 0.184 | inactive: -0.153 | inactive: 0.03 | inactive: 0.104 | inactive: -0.149 | inactive: -0.029 | inactive: 0.028 | inactive: -0.085 | inactive: 0.038 | inactive: 0.051 | inactive: -0.18 | inactive: -0.023 | inactive: -0.131 | inactive: 0.071 | inactive: -0.037 | inactive: 0.109 | inactive: 0.178 | inactive: 0.122
CLPTM1L (UniProt Q96KA5) | inactive: -0.186 | inactive: 0.07 | inactive: -0.103 | inactive: 0.009 | inactive: -0.045 | inactive: -0.016 | inactive: -0.042 | inactive: 0.011 | inactive: -0.056 | inactive: 0.02 | inactive: -0.007 | inactive: 0.007 | inactive: -0.148 | inactive: -0.019 | inactive: 0.025 | inactive: 0.023 | inactive: 0.044 | inactive: 0.02 | inactive: -0.072 | inactive: 0.002

Laid out differently: results already given.

| Target | log2 fold change (bafetinib) | log2 fold change [1] | log2 fold change (nilotinib) | log2 fold change [2] | log2 fold change (dasatinib) | log2 fold change [3] | log2 fold change [4] | log2 fold change [5] | log2 fold change (tipifarnib) | log2 fold change (mubritinib) | log2 fold change [6] | log2 fold change [7] | log2 fold change [8] | log2 fold change [9] | log2 fold change (entinostat) | log2 fold change (vorinostat) | log2 fold change (citarinostat) | log2 fold change (silmitasertib) | log2 fold change [10] | log2 fold change [11] |
| --- | --- | --- | --- | --- | --- | --- | --- | --- | --- | --- | --- | --- | --- | --- | --- | --- | --- | --- | --- | --- |
| CIAO2A (UniProt Q9H5X1) | inactive: -0.002 | inactive: -0.023 | inactive: -0.055 | inactive: 0.051 | inactive: -0.061 | inactive: -0.02 | inactive: 0.033 | inactive: 0.006 | inactive: 0.026 | inactive: 0.062 | inactive: -0.034 | inactive: -0.073 | inactive: -0.03 | inactive: 0.004 | inactive: -0.008 | inactive: -0.006 | inactive: -0.04 | inactive: -0.041 | inactive: -0.018 | inactive: 0.009 |
| CNOT2 (UniProt Q9NZN8) | inactive: -0.002 | inactive: 0 | inactive: 0.048 | inactive: -0.063 | inactive: -0.035 | inactive: 0.01 | inactive: -0.055 | inactive: 0.022 | inactive: -0.063 | inactive: 0.054 | inactive: -0.012 | inactive: -0.014 | inactive: -0.058 | inactive: -0.087 | inactive: -0.023 | inactive: 0.018 | inactive: 0.026 | inactive: 0.046 | inactive: 0.007 | inactive: -0.058 |
